Test results as given in the supplement of paper PMC9578143, “Small-Molecule Ebselen Binds to YTHDF Proteins Interfering with the Recognition of N^6-Methyladenosine-Modified RNAs” (ACS Pharmacology & Translational Science, 2022).
The other results are listed elsewhere or left out. Baselines shift from plate to plate; read single values as rough.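 Hits were defined as a z-score below −3.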

These molecules were tested against T1, YTHDF1 YTH domain (aa 365-554) (UniProt Q9BYJ9) (assay: tryptophan fluorescence intensity z-score (mean); higher = higher fluorescence, less quenching (negative = binding / quenching)). Details: 10 µM.
T1 sequence (whole entry): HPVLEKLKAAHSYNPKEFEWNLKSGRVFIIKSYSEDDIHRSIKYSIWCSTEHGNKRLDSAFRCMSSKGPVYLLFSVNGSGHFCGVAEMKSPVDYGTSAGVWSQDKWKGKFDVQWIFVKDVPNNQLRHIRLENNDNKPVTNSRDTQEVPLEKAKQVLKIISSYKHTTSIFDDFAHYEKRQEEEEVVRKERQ

Tryptophan fluorescence intensity z-score, inactive:
N[C@@H](Cc1cc(I)c(Oc2ccc(O)c(I)c2)c(I)c1)C(=O)O [LIOTHYRONINE(L-isomer)SODIUM] (plate: M 7-8) 0.298, N[C@@H](Cc1cc(I)c(Oc2ccc(O)c(I)c2)c(I)c1)C(=O)O (plate: M 5-6) 0.164, CC1CC(OC(=O)c2ccccc2O)CC(C)(C)C1 (configuration not stated) (plate: M 9-10) -0.289, O=C(CCCN1CCN(c2ccccn2)CC1)c1ccc(F)cc1 (plate: M 9-10) -0.131, C[C@H](CCC(=O)O)[C@H]1CC[C@H]2[C@@H]3[C@@H](O)C[C@@H]4C[C@H](O)CC[C@]4(C)[C@H]3CC[C@]12C (plate: M 5-6) -1.06, CC(C)c1ccc2c(c1)CCC1[C@](C)(CN)CCC[C@]21C (some centres not stated) (plate: M 19-20) 0.421, CN1CCN(C(c2ccccc2)c2ccccc2)CC1 (plate: M 1-2) 0.222, C[C@]12CC[C@@H]3c4ccc(OC(=O)c5ccccc5)cc4CC[C@H]3[C@@H]1CC[C@@H]2O (plate: M 7-8) 0.0411, O=C(O)c1ccccc1C(=O)Nc1ccc(S(=O)(=O)Nc2nccs2)cc1 (plate: M 7-8) -0.193, C[N+](C)(C)CC(=O)O (plate: M 7-8) 0.19, OCCN(CCO)c1nc(N2CCCCC2)c2nc(N(CCO)CCO)nc(N3CCCCC3)c2n1 (plate: M 3-4) -0.454, CC(=O)OCC(=O)[C@@]1(O)CCC2C3CCC4=CC(=O)C=C[C@]4(C)[C@@]3(F)[C@@H](O)C[C@@]21C (some centres not stated) (plate: M 13-14) 1.12, C[C@@H]1C[C@H]2[C@@H]3CCC4=CC(=O)C=C[C@]4(C)[C@@]3(F)[C@@H](O)C[C@]2(C)[C@@]1(O)C(=O)COP(=O)(O)O (plate: M 1-2) 0.365, C(=C\c1ccccc1)/CN1CCN(C(c2ccccc2)c2ccccc2)CC1 (plate: M 7-8) -0.474, CCOC(=O)n1ccn(C)c1=S (plate: M 23-24) 0.284, COc1cc(O)c2c(c1)C(=O)c1cc(C)cc(O)c1C2=O (plate: M 19-20) 0.196, O=C1CN(/N=C/c2ccc(-c3ccc([N+](=O)[O-])cc3)o2)C(=O)N1 (plate: M 7-8) -0.0151, C=C[C@@H](C1=CC(=O)C(OC)=C(OC)C1=O)c1ccccc1 (plate: M 15-16) -1.71, Cc1cc(NS(=O)(=O)c2ccc(N)cc2)no1 (plate: M 5-6) -0.371, CN[C@@H]1[C@@H](O)[C@@H](O[C@@H]2[C@@H](O)[C@H](O[C@H]3OC(CN)=CC[C@H]3N)[C@@H](N)C[C@H]2N)OC[C@]1(C)O (plate: M 5-6) -0.541, CC1(C)S[C@@H]2[C@H](NC(=O)[C@H](C(=O)O)c3ccsc3)C(=O)N2[C@H]1C(=O)O (plate: M 11-12) -0.061, Cc1ccccc1OCC(O)CO (configuration not stated) (plate: M 7-8) 0.141, O=C1CN(/N=C/c2ccc([N+](=O)[O-])o2)C(=O)N1 (plate: M 3-4) -0.5, c1ccc2c(c1)CN1CCCC1=N2 (plate: M 19-20) 0.536, COc1c(-c2ccccc2)oc2c(ccc3occc32)c1=O (plate: M 23-24) 0.466, Cc1c(C(=O)O)c(O)cc2c1C(=O)c1c(O)c([C@@H]3O[C@H](CO)[C@@H](O)[C@H](O)[C@H]3O)c(O)c(O)c1C2=O (plate: M 17-18) -0.663, CCN(CC)CCOC(=O)C(Cc1cccc2ccccc12)CC1CCCO1 (configuration not stated) (plate: M 9-10) 0.544, CC1(C)S[C@@H]2[C@H](NC(=O)C(C(=O)O)c3ccccc3)C(=O)N2[C@H]1C(=O)O (some centres not stated) (plate: M 1-2) 0.597, C[C@H](N)[C@H](O)c1cccc(O)c1 (plate: M 7-8) -0.174, CCN(CC)C(=S)SSC(=S)N(CC)CC (plate: M 3-4) -1.84, C=C[C@@]1(C)CC(=O)[C@]2(O)[C@@]3(C)[C@@H](O)CCC(C)(C)[C@@H]3[C@H](O)[C@H](OC(C)=O)[C@@]2(C)O1 (plate: M 9-10) -0.0305, CN(Cc1cnc2nc(N)nc(N)c2n1)c1ccc(C(=O)NC(CCC(=O)O)C(=O)O)cc1 (racemic) (plate: M 3-4) -0.835, O=c1cc(-c2ccccc2)oc2cc(O)cc(O)c12 (plate: M 17-18) 0.163, Nc1c2c(nc3ccccc13)CCCC2 (plate: M 11-12) 0.122, COC(=O)CC1C(C)(C)C(OC(C)=O)[C@@H]2[C@@H](OC(C)=O)[C@]34O[C@@]2(O)[C@]1(C)C3CC[C@]1(C)C4=CC(=O)O[C@H]1c1ccoc1 (some centres not stated) (plate: M 13-14) -0.111, COc1ccc2c(=O)c(-c3ccc(O)cc3)coc2c1 (plate: M 19-20) 0.53, NC[C@H]1O[C@H](O[C@H]2[C@H](O)[C@@H](O[C@H]3O[C@H](CO)[C@@H](O)[C@H](N)[C@H]3O)[C@H](N)C[C@@H]2N)[C@H](O)[C@@H](O)[C@@H]1O (plate: M 3-4) 0.0651, CC[C@H]1OC(=O)C[C@@H](O)[C@H](C)[C@@H](O[C@@H]2O[C@H](C)[C@@H](O[C@H]3C[C@@](C)(O)[C@@H](O)[C@H](C)O3)[C@H](N(C)C)[C@H]2O)[C@@H](CC=O)C[C@@H](C)C(=O)/C=C/C(C)=C/[C@@H]1CO[C@@H]1O[C@H](C)[C@@H](O)[C@@H](OC)[C@H]1OC (plate: M 9-10) -0.202, CNS(=O)(=O)c1ccc(NC(=O)c2ccccc2C(=O)O)cc1 (plate: M 11-12) -0.729, CCN(CC)CCOc1ccc2c(c1)C(=O)c1cc(OCCN(CC)CC)ccc1-2 (plate: M 13-14) 1.42, COc1ccc(C=CC(=O)O)cc1OC (plate: M 21-22) -0.0934, CC1(C)O[C@@H]2C[C@H]3[C@@H]4CCC5=CC(=O)C=C[C@]5(C)[C@H]4[C@@H](O)C[C@]3(C)[C@]2(C(=O)CO)O1 (plate: M 11-12) 0.0477, O=C(O)Cc1cc(I)c(Oc2cc(I)c(O)c(I)c2)c(I)c1 (plate: M 21-22) 0.254, COc1ccc(C(=O)CC(=O)c2ccc(C(C)(C)C)cc2)cc1 (plate: M 9-10) -0.193, CC1(C)C(=O)C=CC2(C)C1C=CC1(C)C2CCC2(C)C(c3ccoc3)OC(=O)C3OC312 (configuration not stated) (plate: M 13-14) 0.73, COc1ncnc(NS(=O)(=O)c2ccc(N)cc2)c1OC (plate: M 13-14) 0.0622, CC(=O)OCC(=O)[C@@]1(O)[C@H](C)C[C@H]2[C@@H]3CCC4=CC(=O)C=C[C@]4(C)[C@@]3(F)[C@@H](O)C[C@@]21C (plate: M 3-4) 0.138, C#CCCCCCCCCCCCC(O)CC(O)COC(C)=O (configuration not stated) (plate: M 15-16) 0.317, COc1c(N2C[C@@H]3CCCN[C@@H]3C2)c(F)cc2c(=O)c(C(=O)O)cn(C3CC3)c12 (plate: M 9-10) -1.2, COc1ccc(C(=O)c2ccccc2)c(O)c1 (plate: M 3-4) -0.261, O=c1cc(-c2ccccc2O)oc2cc(O)ccc12 (plate: M 17-18) 0.154, CC(C)NCC(O)c1ccc(O)c(O)c1 (configuration not stated) (plate: M 3-4) -0.145, NCCSSCCN (plate: M 21-22) 0.461, CC1(C)C(=O)[C@H]2C[C@]3(O)C4=CC(=O)O[C@@H](c5ccoc5)[C@@]4(C)CCC3[C@](C)(C2=O)[C@H]1CC(=O)O (some centres not stated) (plate: M 13-14) 0.797, CC(C)=CC1C(CO)C1(C)C (configuration not stated) (plate: M 17-18) 0.299, Cc1occc(=O)c1O (plate: M 17-18) 0.199, C#C[C@]1(O)CC[C@H]2[C@@H]3CCc4cc(O)ccc4[C@H]3CC[C@@]21C (plate: M 3-4) -0.263, CCC(C(N)=O)c1ccccc1 (configuration not stated) (plate: M 23-24) 0.586, CCOc1cc(CC(=O)N[C@@H](CC(C)C)c2ccccc2N2CCCCC2)ccc1C(=O)O (plate: M 13-14) 0.408, COc1cc2c(cc1OC)C1(O)C(=O)c3ccc(O)c(C(=O)O)c3OC1CO2 (configuration not stated) (plate: M 15-16) 0.136, CO[C@H]1O[C@H](CO)C(O[C@@H]2OC(C(=O)O)[C@@H](O[C@H]3O[C@H](COS(=O)(=O)O)C(O[C@@H]4OC(C(=O)O)[C@@H](O[C@H]5O[C@H](CO)C(O[C@@H]6OC(C(=O)O)[C@@H](O[C@H]7O[C@H](COS(=O)(=O)O)C(O[C@@H]8OC(C(=O)O)=C[C@H](O)C8OS(=O)(=O)O)[C@H](O)[C@H]7NC(C)=O)[C@H](O)[C@H]6O)[C@H](O)[C@H]5NC(C)=O)[C@H](O)[C@H]4O)[C@H](O)[C@H]3NC(C)=O)[C@H](O)[C@H]2O)[C@H](O)[C@H]1NC(C)=O (some centres not stated) [ENOXAPARINSODIUM(1%wt/volin10%aqDMSO)] (plate: M 9-10) -0.121, CC1(C)CC23C(=O)CCC(O)C2(C)CCC13 (configuration not stated) (plate: M 21-22) 0.42
